Results are given in words; binding and its absence hold for the method and conditions named. For some assays here: Binding seen in cells or lysates may run through a third protein. Some entries that bind do so weakly or less than the wild type.
Tests used:
[1] = molecular target: APP protein (endogenous, full-length) (UniProt P12023); test: GST pull-down from P19 cell extracts, Western blot
[2] = molecular target: T1, LDL receptor peptide with the motif Asn Phe Asp Asn Pro Val Tyr; test: cellulose peptide array, radiolabeled GST-PTB
T1 sequence (peptide): NFDNPVY

Amino acid sequences for entries named in this document (tags omitted). A change or cut given only in a name is not applied to a line headed by its entry. Residues count along the entry.
UniProt P12023, residues 18-770: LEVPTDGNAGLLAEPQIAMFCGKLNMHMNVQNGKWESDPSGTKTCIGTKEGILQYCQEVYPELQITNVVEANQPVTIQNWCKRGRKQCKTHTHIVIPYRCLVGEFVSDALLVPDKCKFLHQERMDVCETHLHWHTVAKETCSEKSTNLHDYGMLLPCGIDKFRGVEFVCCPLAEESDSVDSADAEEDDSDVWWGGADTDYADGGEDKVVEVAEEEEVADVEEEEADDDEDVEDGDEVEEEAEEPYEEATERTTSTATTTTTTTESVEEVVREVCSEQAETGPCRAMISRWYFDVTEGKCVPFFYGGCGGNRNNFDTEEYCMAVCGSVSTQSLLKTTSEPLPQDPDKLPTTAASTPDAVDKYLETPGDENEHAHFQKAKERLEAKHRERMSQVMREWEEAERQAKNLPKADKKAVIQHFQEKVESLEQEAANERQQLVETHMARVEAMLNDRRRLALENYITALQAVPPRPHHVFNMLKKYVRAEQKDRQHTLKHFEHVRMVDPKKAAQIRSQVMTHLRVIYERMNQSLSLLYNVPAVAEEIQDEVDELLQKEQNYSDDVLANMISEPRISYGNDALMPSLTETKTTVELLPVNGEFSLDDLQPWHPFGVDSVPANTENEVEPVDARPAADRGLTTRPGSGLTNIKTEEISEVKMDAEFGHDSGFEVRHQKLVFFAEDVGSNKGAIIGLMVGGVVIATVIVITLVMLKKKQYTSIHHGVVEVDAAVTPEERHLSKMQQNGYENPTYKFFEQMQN
UniProt O75553: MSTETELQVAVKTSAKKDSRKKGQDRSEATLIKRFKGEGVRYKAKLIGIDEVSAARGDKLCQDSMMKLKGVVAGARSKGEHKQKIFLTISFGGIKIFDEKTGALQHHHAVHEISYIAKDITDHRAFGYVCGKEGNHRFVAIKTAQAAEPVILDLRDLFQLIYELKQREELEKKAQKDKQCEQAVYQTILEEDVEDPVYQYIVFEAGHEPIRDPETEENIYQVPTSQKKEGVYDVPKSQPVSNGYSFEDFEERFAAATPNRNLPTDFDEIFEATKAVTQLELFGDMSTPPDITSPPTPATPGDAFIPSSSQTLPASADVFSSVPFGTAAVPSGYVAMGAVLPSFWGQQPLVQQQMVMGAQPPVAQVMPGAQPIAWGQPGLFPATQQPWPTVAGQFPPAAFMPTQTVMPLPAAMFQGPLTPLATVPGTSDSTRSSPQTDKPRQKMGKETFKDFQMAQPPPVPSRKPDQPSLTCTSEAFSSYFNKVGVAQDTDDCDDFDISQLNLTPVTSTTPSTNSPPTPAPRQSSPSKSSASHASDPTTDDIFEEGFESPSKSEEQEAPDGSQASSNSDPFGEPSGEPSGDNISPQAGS

[3] = molecular target: T2, p150 Ship peptide with the motif Met Phe Glu Asn Pro Leu Tyr; test: cellulose peptide array, radiolabeled GST-PTB
T2 sequence (peptide): MFENPLY

[4] = molecular target: T3, LRP peptide with the more carboxy-terminal NPXY motif Asn Phe Thr Asn Pro Val Tyr; test: cellulose peptide array, radiolabeled GST-PTB
T3 sequence (peptide): NFTNPVY

[5] = molecular target: T4, p150 Ship peptide with the motif Glu Met Ile Asn Pro Asn Tyr; test: cellulose peptide array, radiolabeled GST-PTB
T4 sequence (peptide): EMINPNY

Measured: binding

GST-mDab1 PTB domain fusion protein (from UniProt O75553 29-197)
binds: [1] | [2] | [3] | [4] | [5]

— patent publication US7250505
